The results in this text go back to patent US20190015473A1 (MIT, published 2019).

Sequences of proteins named here, by UniProt entry; tags and fusion partners are left off.
UniProt O70494: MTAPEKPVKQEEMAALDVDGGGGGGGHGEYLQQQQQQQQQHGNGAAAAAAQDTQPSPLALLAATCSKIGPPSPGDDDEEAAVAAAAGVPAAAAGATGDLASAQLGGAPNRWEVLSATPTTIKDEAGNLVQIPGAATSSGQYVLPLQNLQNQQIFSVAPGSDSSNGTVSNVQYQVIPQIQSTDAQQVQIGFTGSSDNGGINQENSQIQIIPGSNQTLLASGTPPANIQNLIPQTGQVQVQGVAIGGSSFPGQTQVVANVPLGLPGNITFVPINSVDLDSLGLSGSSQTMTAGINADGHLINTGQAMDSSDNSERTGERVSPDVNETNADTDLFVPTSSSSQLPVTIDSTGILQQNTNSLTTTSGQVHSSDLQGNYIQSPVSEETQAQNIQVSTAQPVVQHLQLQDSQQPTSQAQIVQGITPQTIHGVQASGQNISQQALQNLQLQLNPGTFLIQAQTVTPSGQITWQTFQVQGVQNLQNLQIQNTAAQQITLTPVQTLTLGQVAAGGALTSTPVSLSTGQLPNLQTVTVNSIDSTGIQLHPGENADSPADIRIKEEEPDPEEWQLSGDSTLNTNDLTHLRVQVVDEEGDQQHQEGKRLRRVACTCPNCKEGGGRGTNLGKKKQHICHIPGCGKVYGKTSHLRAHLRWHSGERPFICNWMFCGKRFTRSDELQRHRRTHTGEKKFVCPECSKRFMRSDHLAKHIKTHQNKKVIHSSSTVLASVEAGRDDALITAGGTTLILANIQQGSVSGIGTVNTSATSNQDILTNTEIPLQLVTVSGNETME

Test [1] addresses histone deacetylase 2 (HDAC2), endogenous, mouse brain tissue (mouse) (UniProt P70288). Briefly: co-IP with anti-HDAC2 antibody from mouse cortex, western blot with anti-Tdp2. In general terms: A western blot detects proteins with antibodies after separation by electrophoresis.
Test [2] deals with transcription factor Sp3 (Sp3), endogenous (mouse) (UniProt O70494). Put plainly: co-immunoprecipitation (anti-Flag) from transfected N2A cells, western blot.

These are yes or no findings as the source states them, for the method shown. Binding seen in cells or lysates may run through a third protein. Some entries that bind do so weakly or less than the wild type.

B1: Tdp2 (protein, mouse, UniProt Q9JJX7 1-370, looked up)
chain: MASGSSSDAAEPAGPAGRAASAPEAAQAEEDRVKRRRLQCLGFALVGGCDPTMVPSVLRENDWQTQKALSAYFELPENDQGWPRQPPTSFKSEAYVDLTNEDANDTTILEASPSGTPLEDSSTISFITWNIDGLDGCNLPERARGVCSCLALYSPDVVFLQEVIPPYCAYLKKRAASYTIITGNEEGYFTAILLKKGRVKFKSQEIIPFPNTKMMRNLLCVNVSLGGNEFCLMTSHLESTREHSAERIRQLKTVLGKMQEAPDSTTVIFAGDTNLRDQEVIKCGGLPDNVFDAWEFLGKPKHCQYTWDTKANNNLRIPAAYKHRFDRIFFRAEEGHLIPQSLDLVGLEKLDCGRFPSDHWGLLCTLNVVL
B1: the binding result in test [1] was “binds”.

B2: C-terminal domain of HDAC2 (termed 2C) fused with mCherry, flag-tagged (other, UniProt Q92769 390-488, looked up)
chain: VHEDSGDEDGEDPDKRISIRASDKRIACDEEFSDSEDEGEGGRRNVADHKKGAKKARIEEDKKETEDKKTDVKEEDKSKDNSGEKTDTKGTKSEQLSNP
notes: The part order follows the printed name 'mCherry-2C'; the Flag position is unknown; also called mCherry-2C; HDAC2 C-terminal fragment (2C); not shown: Flag tag; mCherry (engineered red fluorescent protein)
As for B2, the binding entry in test [2] is “binds”.
